Measurements taken from PMC12823420.

Legend:
[1] = target: GFP–UAP56 (endogenously tagged eGFP–3C–DDX39B) (human (endogenous in K562)) (UniProt Q13838); assay: affinity purification with mass spectrometry; GFP-Trap IP from benzonase-treated nuclear lysate of GFP–UAP56 K562 cells against WT K562; on-bead digest, MS
[2] = target: V5-flag-TurboID-tagged UAP56 mutant M1 (D49R/L51D) (human) (UniProt Q13838); assay: affinity purification with mass spectrometry; anti-flag M2 IP of V5-flag-TurboID-UAP56 WT or mutants M1–M3 from K562 nuclei, quantitative MS against V5-flag-TurboID-eGFP-NLS or WT UAP56

binding [1] | binding [2] | Binder
binds | – | endogenous RBM27 (K562) (protein, UniProt Q9P2N5 1-1060) MLIEDVDALKSWLAKLLEPICDADPSALANYVVALVKKDKPEKELKAFCADQLDVFLQKETSGFVDKLFESLYTKNYLPLLEPVKPEPKPLVQEKEEIKEEVFQEPAEEERDGRKKKYPSPQKTRSESSERRTREKKREDGKWRDYDRYYERNELYREKYDWRRGRSKSRSKSRGLSRSRSRSRGRSKDRDPNRNVEHRERSKFKSERNDLESSYVPVSAPPPNSSEQYSSGAQSIPSTVTVIAPAHHSENTTESWSNYYNNHSSSNSFGRNLPPKRRCRDYDERGFCVLGDLCQFDHGNDPLVVDEVALPSMIPFPPPPPGLPPPPPPGMLMPPMPGPGPGPGPGPGPGPGPGPGPGHSMRLPVPQGHGQPPPSVVLPIPRPPITQSSLINSRDQPGTSAVPNLASVGTRLPPPLPQNLLYTVSERQPMYSREHGAAASERLQLGTPPPLLAARLVPPRNLMGSSIGYHTSVSSPTPLVPDTYEPDGYNPEAPSITSSGRSQYRQFFSRTQTQRPNLIGLTSGDMDVNPRAANIVIQTEPPVPVSINSNITRVVLEPDSRKRAMSGLEGPLTKKPWLGKQGNNNQNKPGFLRKNQYTNTKLEVKKIPQELNNITKLNEHFSKFGTIVNIQVAFKGDPEAALIQYLTNEEARKAISSTEAVLNNRFIRVLWHRENNEQPTLQSSAQLLLQQQQTLSHLSQQHHHLPQHLHQQQVLVAQSAPSTVHGGIQKMMSKPQTSGAYVLNKVPVKHRLGHAGGNQSDASHLLNQSGGAGEDCQIFSTPGHPKMIYSSSNLKTPSKLCSGSKSHDVQEVLKKKQEAMKLQQDMRKKRQEVLEKQIECQKMLISKLEKNKNMKPEERANIMKTLKELGEKISQLKDELKTSSAVSTPSKVKTKTEAQKELLDTELDLHKRLSSGEDTTELRKKLSQLQVEAARLGILPVGRGKTMSSQGRGRGRGRGGRGRGSLNHMVVDHRPKALTVGGFIEEEKEDLLQHFSTANQGPKFKDRRLQISWHKPKVPSISTETEEEEVKEEETETSDLFLPDDDDEDEDEYESRSWRR
binds | – | endogenous NCBP3 (K562) (protein, UniProt Q53F19 1-620) MAAVRGLRVSVKAEAPAGPALGLPSPEAESGVDRGEPEPMEVEEGELEIVPVRRSLKELIPDTSRRYENKAGSFITGIDVTSKEAIEKKEQRAKRFHFRSEVNLAQRNVALDRDMMKKAIPKVRLETIYICGVDEMSTQDVFSYFKEYPPAHIEWLDDTSCNVVWLDEMTATRALINMSSLPAQDKIRSRDASEDKSAEKRKKDKQEDSSDDDEAEEGEVEDENSSDVELDTLSQVEEESLLRNDLRPANKLAKGNRLFMRFATKDDKKELGAARRSQYYMKYGNPNYGGMKGILSNSWKRRYHSRRIQRDVIKKRALIGDDVGLTSYKHRHSGLVNVPEEPIEEEEEEEEEEEEEEEEDQDMDADDRVVVEYHEELPALKQPRERSASRRSSASSSDSDEMDYDLELKMISTPSPKKSMKMTMYADEVESQLKNIRNSMRADSVSSSNIKNRIGNKLPPEKFADVRHLLDEKRQHSRPRPPVSSTKSDIRQRLGKRPHSPEKAFSSNPVVRREPSSDVHSRLGVPRQDSKGLYADTREKKSGNLWTRLGSAPKTKEKNTKKVDHRAPGAEEDDSELQRAWGALIKEKEQSRQKKSRLDNLPSLQIEVSRESSSGSEAES
binds | – | endogenous UIF (K562) (protein, UniProt Q96QD9 1-318) MNRFGTRLVGATATSSPPPKARSNENLDKIDMSLDDIIKLNRKEGKKQNFPRLNRRLLQQSGAQQFRMRVRWGIQQNSGFGKTSLNRRGRVMPGKRRPNGVITGLAARKTTGIRKGISPMNRPPLSDKNIEQYFPVLKRKANLLRQNEGQRKPVAVLKRPSQLSRKNNIPANFTRSGNKLNHQKDTRQATFLFRRGLKVQAQLNTEQLLDDVVAKRTRQWRTSTTNGGILTVSIDNPGAVQCPVTQKPRLTRTAVPSFLTKREQSDVKKVPKGVPLQFDINSVGKQTGMTLNERFGILKEQRATLTYNKGGSRFVTVG
binds | binds | endogenous SARNP (K562) (protein, UniProt P82979 1-210) MATETVELHKLKLAELKQECLARGLETKGIKQDLIHRLQAYLEEHAEEEANEEDVLGDETEEEETKPIELPVKEEEPPEKTVDVAAEKKVVKITSEIPQTERMQKRAERFNVPVSLESKKAARAARFGISSVPTKGLSSDNKPMVNLDKLKERAQRFGLNVSSISRKSEDDEKLKKRKERFGIVTSSAGTGTTEDTEAKKRKRAERFGIA

These are yes or no findings as the source states them, for the method shown. In cells and extracts the contact can be indirect. A yes stands for co-enrichment or nearness to the bait. Other partners may have been found.
